Data on 1 molecule can be found in publication PMC12420274.

Chains of the proteins cited; added tags and fusions are not shown. Lines headed by an entry give the natural chain unless they say otherwise; changes in a name come on top. A line that says so, or that is headed by a name, gives the form on record, which may keep a tag or linker.
FcαRI (CD89) Gly^248 variant with the transmembrane Arg^209Leu mutation (FcRγ-pairing-disabled) (P24071, form named): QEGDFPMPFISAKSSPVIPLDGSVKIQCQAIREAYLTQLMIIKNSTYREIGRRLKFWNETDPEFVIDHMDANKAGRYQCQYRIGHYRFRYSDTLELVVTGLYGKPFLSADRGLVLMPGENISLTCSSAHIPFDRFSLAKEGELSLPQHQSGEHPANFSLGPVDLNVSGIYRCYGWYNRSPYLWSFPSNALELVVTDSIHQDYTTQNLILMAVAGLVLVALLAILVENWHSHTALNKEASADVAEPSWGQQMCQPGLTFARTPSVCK
FcαRI (CD89) Ser^248 variant with the transmembrane Arg^209Leu mutation (FcRγ-pairing-disabled) (P24071, form named): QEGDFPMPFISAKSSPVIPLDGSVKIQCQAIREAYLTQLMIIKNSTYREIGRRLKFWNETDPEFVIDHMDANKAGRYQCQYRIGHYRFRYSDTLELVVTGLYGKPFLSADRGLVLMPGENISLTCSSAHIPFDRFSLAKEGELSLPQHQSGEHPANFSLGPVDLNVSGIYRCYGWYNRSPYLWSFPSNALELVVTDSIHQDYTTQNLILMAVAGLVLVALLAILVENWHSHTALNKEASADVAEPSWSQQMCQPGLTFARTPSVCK

Assay [1] deals with FcαRI (CD89) Gly^248 variant with the transmembrane Arg^209Leu mutation (FcRγ-pairing-disabled) (human) (UniProt P24071). Kind of assay: affinity purification with mass spectrometry; FcαRI captured from P388D1 transfectant lysates (0.5% NP-40, 0.5% Triton X-100 in PBS) on an A59 F(ab')2 Sepharose column after preclearing; sequential elution, SDS-PAGE, silver stain; 65-kDa band identified by MALDI-MS.

The target of assay [2] is FcαRI (CD89) Ser^248 variant with the transmembrane Arg^209Leu mutation (FcRγ-pairing-disabled) (human) (UniProt P24071). The description is as above.

No constants are given. Whether binding was seen depends on the method and setting. Binding seen in cells or lysates may run through a third protein. These calls come from enrichment with a bait or labelling near it, and not all partners need be listed. For some assays here: No binding means not detected with the bait.

B1: murine Sab (SH3BP5) (protein, UniProt Q9Z131 1-463)
chain: MDTALKRSRSDEPAELPPPAREVEEKEEEEERMEQGLEEEEEEVDPRIQGELEKLNQSTDDINRRETELEDARQKFRSVLVEATVKLDELAKKIGKAVEDSKPYWEARRVARQAQLEAQKATQDFQRATEVLRAAKETISLAEQRLLEDDKRQFDSAWQEMLNHATQRVMEAEQTKTRSELVHKETAARYNAAMGRMRQLEKKLKRAINKSKPYFELKAKYYVQLEQLKKTVDDLQAKLALAKGEYKAALKSLERISDEIHERRRSNAMGPRGCGVGAEGSIASVENLPVSKPEPDAISVASEAFEDDNCSNLVSEDDSETQSVSSFSSGPTSPSEMPDQFPAVARPGSLDLPSPVSLSEFGMMFPILGPRSECSGASSPECEVERGDRAEGAENKMSDKANNNRVLGSTNGGSGRSRSQSSTSLESQALETRMKQLSLQCSKGRDGIIADIKMIFIFYTFLQ
Take B1: the binding result is on record as “no binding” in assay [1] and “binds” in assay [2].
